Results are given in words; binding and its absence hold for the method and conditions named. Sequences can lack the tags named with a protein.
Target: ChlR1-Q23A (human ChlR1 helicase, Q motif mutant, C-terminal 3xFLAG) (human) (UniProt Q96FC9)
Assay: sucrose density gradient centrifugation; linear 10-25% sucrose gradient, 25 mM Tris pH 7.4, 150 mM NaCl, 1 mM DTT; 0.5 mg/mL protein (50 uL) loaded; 120,000 g, 16 h, 4 C; fractions by SDS-PAGE; globular standards run in parallel; both purified

B1: ChlR1-Q23A (human ChlR1 helicase, Q motif mutant, C-terminal 3xFLAG) (enzyme, UniProt Q96FC9-2 1-906)
chain: MANETQKVGAIHFPFPFTPYSIAEDFMAELYRVLEAGKIGIFESPTGTGKSLSLICGALSWLRDFEQKKREEEARLLETGTGPLHDEKDESLCLSSSCEGAAGTPRPAGEPAWVTQFVQKKEERDLVDRLKAEQARRKQREERLQQLQHRVQLKYAAKRLRQEEEERENLLRLSREMLETGPEAERLEQLESGEEELVLAEYESDEEKKVASRVDEDEDDLEEEHITKIYYCSRTHSQLAQFVHEVKKSPFGKDVRLVSLGSRQNLCVNEDVKSLGSVQLINDRCVDMQRSRHEKKKGAEEEKPKRRRQEKQAACPFYNHEQMGLLRDEALAEVKDMEQLLALGKEARACPYYGSRLAIPAAQLVVLPYQMLLHAATRQAAGIRLQDQVVIIDEAHNLIDTITGMHSVEVSGSQLCQAHSQLLQYVERYGKRLKAKNLMYLKQILYLLEKFVAVLGGNIKQNPNTQSLSQTGTELKTINDFLFQSQIDNINLFKVQRYCEKSMISRKLFGFTERYGAVFSSREQPKLAGFQQFLQSLQPRTTEALAAPADESQASTLRPASPLMHIQGFLAALTTANQDGRVILSRQGSLSQSTLKFLLLNPAVHFAQVVKECRAVVIAGGTMQPVSDFRQQLLACAGVEAERVVEFSCGHVIPPDNILPLVICSGISNQPLEFTFQKRELPQMMDEVGRILCNLCGVVPGGVVCFFPSYEYLRQVHAHWEKGGLLGRLAARKKIFQEPKSAHQVEQVLLAYSRCIQACGQERGQVTGALLLSVVGGKMSEGINFSDNLGRCVVMVGMPFPNIRSAELQEKMAYLDQTLPRAPGQAPPGKALVENLCMKAVNQSIGRAIRHQKDFASVVLLDQRYARPPVLAKLPAWIRARVEVKATFGPAIAAVQKFHREKSASS
For B1, the binding was “no binding (tested: 0.5 mg/mL)”.
